Measurements from publication doi:10.1101/2024.01.06.574455.

Target: YlxR/Ssr1238-3×FLAG (Synechocystis sp. PCC 6803)
Assay: affinity purification with mass spectrometry

B1: putative RNA methyltransferase Sll1967 (enzyme, UniProt P73374 1-463)
chain: MTQSNNFATSPLWQQGSVVELTITGLNHQGEGIGRFNERVVFVPDTAPGDRLEVRLVKVKRNYALAQLLKILEPSVQRTRPSCIVADKCGGCQWQHLDYQFQVESKQQQIIDALERIGGFTTLPLEPLLQSPASLGYRNKATYPLSRSKTGQVQAGYYRKGSHRLVNINQCPVQDDRLNLLLTEVKKDIENRGWSIYDEEKKQGKLRHLSLRIGQRTGEMLLTLISAHKGLPDLEEQAGEWLERYPDLGGICLNIQPEPNNRIFGDETVVIAGRGICREKFADLSFSLGANTFFQVNSGAAELLLTRLQQALNLQGAELLVDAYAGVGTFTLPLARQVRQAIAIEVNQDSVHQGQRNAEINQIANVDFLAGTVETVLPTLSEIPDVLLLDPPRKGCAPEVLREIIRQRPEKIAYISCQPPTLARDLKFLCAEGFYGITWVQGCDFFPQTAHVECAVILKAVNG
binding: binds

B2: tRNA (guanine-N(7)-)-methyltransferase TrmB (Sll1300) (enzyme, UniProt P73161 1-211)
chain: MARVRIRQHVNPLSEKYRQVLACPDWATVYDDVQRPLHLDIGCARGRFPLKMAQQHPDWNFLGVEIRQPLVLEANETGDRLGLKNLHYLFGNINVEPEKFFSAFPPTLQRVSIQFPDPWFKQRHNKRRVAQPELVTAIANALPPGGEVLLQSDVEPVAQDMRDRFAENDNFVFTHDTPWLAENPLGVPTEREIACFNLQRPVYRCLLQRTP
binding: binds

B3: RNase E (Rne) (enzyme, UniProt P72656 1-674)
chain: MPKQIVIAEKHQVAAVFWKDQIQELVVSTGSQQVGDIYLGLVDNILPSIDAAFINIGDTEKNGFIHVSDLGPVRLRRTAGSISELLSPQQRVLVQVMKEPTGNKGPRLTGNISMPGRYMVLMPYGRGVNLSRRINREEERSRLRALAVLIKPPGMGLLVRTEAEDVPEDAIIEDLENLQKQWELVQQQAMTRSAPMLLDRDDDFIKRVLRDMYSSEVNRIVVDTPAGMKRIKQQLMNWDQGRLPEGVLIDCHRESLSILEYFRVNATIREALKPRVDLPSGGYIIIEPTEALTVIDVNSGSFTHSANSRETVLWTNYEAATEIARQLKLRNIGGVIIIDFIDMDSHKDQLQLLEHFNRCLETDKARPQIAQLTELGLVELTRKRQGQNLYELFGQPCPECGGLGHLVELPGEKGFVSLSPTAVNSSIPPRLVEKPILSPPVAKVNDLPKKEEAKISSPLDLLFHPNYQEQGDRDSNRRRRRRRGSEFSEKENIKSVGISRSKGPSPSPTKEKVTGTAPPRRERPSRRVEKTLVPVDVAMTTLEQDIYARMGISPLIKTEYADQDPRSFMVSVVTAGAALEGNTNGSGSLVNAVITTVDNGDNGDNVPSDGLTIVSEVTAPTPVIEQPREETVEPEQVVLPQLDDETPAAPVAEESAPIETKKRPGRRRRRSSAE
binding: binds

B4: queuine tRNA-ribosyltransferase Slr0713 (enzyme, UniProt Q55983 1-374)
chain: MPLPSVNFTYQCQARCSHSQARAGIFQTPHGPVETPRFMPVGTLATVKGITPAQLADTQAQMVLANTYHLHLQPGEKIIAAAGGVHKFMGWSGPMLTDSGGFQVFSLSQLRTIGEQGVLFRSPRDGRLIDMTPENSIRIQNALGADVIMAFDECPPGQGDRLMVEQATARTYRWLERCIEAHQRPGDQALFGIVQGGTYLDLRSQAAEQLIALDLPGYAIGGVSVGEAPALIDKVVQHTAPLLPAHKPRYLMGVGTYREMARAIFAGIDLFDCVIPTRFGRHGTALVQGERWNLKNATFREDHRPLDETCPCYTCQTFSRAYLNHLIRSREMLGYILLSLHNITELIRFTQSIRQAILNDTFTQDFAHWLTPPE
binding: binds

B5: enolase (enzyme, UniProt P77972 1-432)
chain: MLSKVPATIEEIAAREILDSRGRPTIEAEVRLESGAHGIAQVPSGASTGSFEAHELRDGDPKRYDGKGVEKAVRNVTEKIAPVVEGLDAFDQMAVDQAMIDRDGTDNKKELGANAILGVSLATAKAAAAELAIPLYRYLGGPLANVLPVPMMNVINGGAHADNNVDFQEFMIMPVGAETFKEALRWGAEVFAVLGKVLKERKLLSGGVGDEGGYAPNLTSNQQALDILIEAIEQAGYKPGSQIALAMDIAASEFFKNGQYEYDGGSHSPQEFIDYQAKLVSQYPIVSIEDGLHEDDWESWKGLTTSLGTKTQLVGDDLMVTNPVRLQKSIDLGVANAILIKLNQIGTLSETLETISLATRHSYRSVISHRSGETEDTTIADLAVATRVGQIKTGSLCRSERVAKYNRLLRIEDELGDRAVYAPKIGLGPKHS
binding: binds

B6: cyanophycin synthetase (CphA) (enzyme, UniProt P73833 1-873)
chain: MKILKTLTLRGPNYWSIRRKKLIVMRLDLEDLAERPSNSIPGFYEGLIRVLPSLVEHFCSPGHRGGFLARVREGTYMGHIVEHVALELQELVGMTAGFGRTRETSTPGIYNVVYEYVDEQAGRYAGRAAVRLCRSLVDTGDYSLTELEKDLEDLRDLGANSALGPSTETIVTEADARKIPWMLLSARAMVQLGYGVHQQRIQATLSSHSGILGVELACDKEGTKTILQDAGIPVPRGTTIQYFDDLEEAINDVGGYPVVIKPLDGNHGRGITINVRHWEEAIAAYDLAAEESKSRSIIVERYYEGSDHRVLVVNGKLVAVAERIPAHVTGDGTSTITELIDKTNQDPNRGDGHANILTKIVVNKTAIDVMERQGYNLDSVLPKDEVVYLRATANLSTGGIAIDRTDDIHPENIWLMERVAKVIGLDIAGIDVVTSDISKPLRETNGVIVEVNAAPGFRMHVAPSQGLPRNVAAPVLDMLFPSGTPSRIPILAVTGTNGKTTTTRLLAHIYRQTGKTVGYTSTDAIYINEYCVEKGDNTGPQSAAVILRDPTVEVAVLETARGGILRAGLAFDTCDVGVVLNVAADHLGLGDIDTIEQMAKVKSVIAEVVDPSGYAVLNADDPLVAAMADKVKAKVAYFSMNPDNPVIQNHIRRNGIAAVYESGYVSILEGSWTLRVEEATLIPMTMGGMAPFMIANALAACLAAFVNGLDVEVIRQGVRTFTTSAEQTPGRMNLFNLGRYHALVDYAHNPAGYRAVGDFVKNWHGQRFGVVGGPGDRRDSDLIELGQIAAQVFDRIIVKEDDDKRGRSGGETADLIVKGILQENPGAAYEVILDETVALNKALDQVEEKGLVVVFPESVSKAIELIKARKPIG
binding: binds

B7: urease subunit UreA (protein, UniProt P73796 1-100)
chain: MQLSPQEKDKLLIFTASLVAERRKARGLKLNYPEAVAYISAAILEGARDGRTVAELMNYGATLLSRDEVMEGVPEMLPEVQVEATFPDGTKLVTVHEPIR
binding: binds

B8: urease subunit UreB (protein, UniProt P74386 1-105)
chain: MATMIPGEIITPEGDIELNVGRSTCTINVANTGDRPIQVGSHYHFYEVNAALQFDRDLAKGMRLDIPAGTAVRFEPGDEKNVNLVAYAGSREIYGFNGLVNGPLE
binding: binds

B9: putative 8-amino-7-oxononanoate synthase BioF (enzyme, UniProt P74770 1-393)
chain: MATGSTAYTWLDDALETIQRAHWHRHPQIITQGPGPEIKLEGQRLVNFASNDYLGLASHPHLKTAAIKAIAEWGTGSTGSRLLSGHRQLHQDLEQAIARWKGTEAALVFSSGYLANLGTITALVGKRDLILADEYNHSSLKRGAQLSGAKVINYDHGCPEVLTDLLMKHRDNHRRCLILSDGVFSMDGDLCPLPQLVAIAEEFQSMLLVDDAHGTGTMGKMGTGCREHFQLPVGDWIQVGTLSKALGSLGGYVAGSASLIDFLRNRAATWIYTTGLSPADTAAALAAIQLIQREPERIVQLQLNVDYLATGLESLTKLNFRRSPINSPILWVGAANPAMALEMAKHLREQGIFAPAIRPPTVPHSRIRFSVMATHSPGHIDQLLEVLDHYYPN
binding: binds

These are yes or no findings as the source states them, for the method shown. In cells and extracts the contact can be indirect. These calls come from enrichment with a bait or labelling near it, and not all partners need be listed.
